Laboratory results reported in patent US20220217970A1, “Perfusion Regulated Organ Therapeutics with Enhanced Controlled Testing” (priority 2021, published 2022).
“Also recorded” adds a separate entry of the source. For at least one compound, name, drawing or mass did not settle the structure.

What was measured:
[1] = test system: RPL8, HO-1 and HIFα expression; test: RT-qPCR of ferroptosis/hypoxia markers in perfused split lobes (Experiment 2); parameters: species or system human; details: GAPDH internal control, against normal control liver
[2] = test system: split human marginal donor liver (MDL) lobes; test: H&E liver histology of perfused split lobes (Experiment 2); details: end of Experiment 2, DMAT vs NAIC lobe
[3] = test system: split human marginal donor liver (MDL) lobes; test: Serological liver injury markers during PROTECT normothermic perfusion of split liver lobes (Experiment 2)
Source text: In order to provide anatomic perfusion, a novel NMP described above and shown in FIGS. 1 and 2 was developed using an extra-corporal membrane oxygenation (ECMO) roller pump (Sorin/Stockert S3) with a modified circuit to provide dual blood supply to the hepatic artery and portal vein. Incorporated into this design was an arterial supply that passes through an oxygenator (Capiox Fx) and was connected to the hepatic artery.
Portal venous blood supply bypassed the oxygenator, was delivered to a reservoir, and then flowed by gravity into the portal vein. Pressure was regulated by the intrinsic resistance within the liver's arterial and portal venous circulations, combined with the resistance within the two limbs of the circuit and the flow delivered to each.
Flow was regulated by adjusting Hoffman clamps. Pressure monitoring was performed on both the arterial and venous limbs of the circuit: mean arterial pressure was titrated for a physiologic goal of 65-75 mmHg and a mean portal venous pressure of 10-15 mmHg. Venous drainage from the liver was collected by placing the liver in a basin with an outflow port that was connected to the intake side of the roller pump, thereby completing the circuit.
The circuit was monitored under guidance from a University certified ECMO perfusionist and the hospital ECMO physician team. The circuit was primed with a solution of 3 units of ABO-compatible packed red blood cells and 6 units of fresh frozen plasma to which 1 g calcium gluconate, 5,000 units of heparin, and 12.5 g sodium bicarbonate were added.
After de-airing the oxygenator by allowing the solution to circulate, the two limbs of the circuit were attached to the perfusion cannula which were placed into the hepatic artery and portal vein as described above and illustrated in FIGS. 3A and 3B. Flow was adjusted as described. Temperature was controlled to 36-37 degrees Celsius by use of a cardiopulmonary bypass heater attached to the oxygenator, as well as heat lamps placed near each basin.
During each perfusion run (Table 1), laboratory analysis was carried out at regular intervals. Perfusate pH, pCO2, pO2, bicarbonate levels, and serum electrolytes (Na^+, K^+, Cl^−, ionized Ca^2+) were monitored every hour by automated blood gas analysis of both arterial and portal venous blood samples. Adjustments to the sweep gas and blood flow were completed, as necessary. Serum markers of liver injury, specifically AST, ALT, GGT, and alkaline phosphatase, were monitored hourly. Additionally, biopsies for histologic analysis were obtained every hour from both split liver lobes. […]
DM Dosing: In addition to the liver lobe weight, the volume of the cold preservation solution was measured. […]

intrahepatic iron = test: Perls' Prussian Blue iron stain quantification of perfused split lobes (Experiment 2); parameters: species or system human; details: conclusion of Experiment 2, treated vs untreated segment (p=0.038, n=6)
[4] = Experiment 2, DMAT vs NAIC lobe

Structure (SMILES): CC(=O)N(O)CCCCCNC(=O)CCC(=O)N(O)CCCCCNC(=O)CCC(=O)N(O)CCCCCN [Deferoxamine]
- HO-1 expression (relative mRNA) ([1]; Experiment 2, DMAT lobe (NAIC 6.93)): reduced expression of HO-1 and HIFα
- HIFα expression (relative mRNA) ([1]; Experiment 2, DMAT lobe (NAIC 8.67)): reduced expression of HO-1 and HIFα
- H&E histology: necrosis, apoptosis, hepatocellular injury, bile duct injury [2]: no hepatocellular necrosis or immunohistochemical staining (Ki67/Cytokeratin-7) differences; also recorded: no difference was observed
- ΔALT (change in serum ALT over the course of the experiment) ([3]; Experiment 2, DM Agent Treated lobe vs No Agent Internal Control lobe (ΔALT NAIC 586), DM infusion 0.6 mmol/L, listed as DM): decrease in AST and ALT
- ΔAST (change in serum AST over the course of the experiment) ([3]; Experiment 2, DM Agent Treated lobe vs No Agent Internal Control lobe (ΔAST NAIC 617), DM infusion 0.6 mmol/L, listed as DM): decrease in AST and ALT
- GGT [3, 4]: not statistically different
- alkaline phosphatase [3, 4]: not statistically different
- iron staining (Perls' Prussian Blue, intrahepatic iron) (intrahepatic iron; listed as DM): marked decrease in iron staining
- iron staining (Perls' Prussian Blue, intrahepatic iron) (intrahepatic iron; listed as DMAT): Significantly decreased intrahepatic iron; also recorded: statistically significant reduction in iron
